US12419871B2, “Biomolecules involved in Alzheimer's disease” (ELECTROPHORETICS LIMITED, priority 2015, dated 2025)

experiment: TMTcalibrator quantification of regulated proteins in AD CSF versus control; design: species or system human; details: CSF of AD patient versus control; non-modified peptides of each protein summed for three control and three AD cases

| Molecule | Log2 AD/Control |
| --- | --- |
| Q9Y570 (protein, UniProt Q9Y570 1-386, looked up, full-length) MSALEKSMHLGRLPSRPPLPGSGGSQSGAKMRMGPGRKRDFSPVPWSQYFESMEDVEVENETGKDTFRVYKSGSEGPVLLLLHGGGHSALSWAVFTAAIISRVQCRIVALDLRSHGETKVKNPEDLSAETMAKDVGNVVEAMYGDLPPPIMLIGHSMGGAIAVHTASSNLVPSLLGLCMIDVVEGTAMDALNSMQNFLRGRPKTFKSLENAIEWSVKSGQIRNLESARVSMVGQVKQCEGITSPEGSKSIVEGIIEEEEEDEEGSESISKRKKEDDMETKKDHPYTWRIELAKTEKYWDGWFRGLSNLFLSCPIPKLLLLAGVDRLDKDLTIGQMQGKFQMQVLPQCGHAVHEDAPDKVAEAVATFLIRHRFAEPIGGFQCVFPGC | 1.08 |
| Q9P2E7 (protein, UniProt Q9P2E7 1-1040, looked up, full-length) MIVLLLFALLWMVEGVFSQLHYTVQEEQEHGTFVGNIAEDLGLDITKLSARGFQTVPNSRTPYLDLNLETGVLYVNEKIDREQICKQSPSCVLHLEVFLENPLELFQVEIEVLDINDNPPSFPEPDLTVEISESATPGTRFPLESAFDPDVGTNSLRDYEITPNSYFSLDVQTQGDGNRFAELVLEKPLDREQQAVHRYVLTAVDGGGGGGVGEGGGGGGGAGLPPQQQRTGTALLTIRVLDSNDNVPAFDQPVYTVSLPENSPPGTLVIQLNATDPDEGQNGEVVYSFSSHISPRARELFGLSPRTGRLEVSGELDYEESPVYQVYVQAKDLGPNAVPAHCKVLVRVLDANDNAPEISFSTVKEAVSEGAAPGTVVALFSVTDRDSEENGQVQCELLGDVPFRLKSSFKNYYTIVTEAPLDREAGDSYTLTVVARDRGEPALSTSKSIQVQVSDVNDNAPRFSQPVYDVYVTENNVPGAYIYAVSATDRDEGANAQLAYSILECQIQGMSVFTYVSINSENGYLYALRSFDYEQLKDFSFQVEARDAGSPQALAGNATVNILIVDQNDNAPAIVAPLPGRNGTPAREVLPRSAEPGYLLTRVAAVDADDGENARLTYSIVRGNEMNLFRMDWRTGELRTARRVPAKRDPQRPYELVIEVRDHGQPPLSSTATLVVQLVDGAVEPQGGGGSGGGGSGEHQRPSRSGGGETSLDLTLILIIALGSVSFIFLLAMIVLAVRCQKEKKLNIYTCLASDCCLCCCCCGGGGSTCCGRQARARKKKLSKSDIMLVQSSNVPSNPAQVPIEESGGFGSHHHNQNYCYQVCLTPESAKTDLMFLKPCSPSRSTDTEHNPCGAIVTGYTDQQPDIISNGSILSNETKHQRAELSYLVDRPRRVNSSAFQEADIVSSKDSGHGDSEQGDSDHDATNRAQSAGMDLFSNCTEECKALGHSDRCWMPSFVPSDGRQAADYRSNLHVPGMDSVPDTEVFETPEAQPGAERSFSTFGKEKALHSTLERKELDGLLTNTRAPYKPPYLTRKRIC | 0.78 |
| A6NEC2 (protein, UniProt A6NEC2 1-478, looked up, full-length) MWLAAAAPSLARRLLFLGPPPPPLLLLVFSRSSRRRLHSLGLAAMPEKRPFERLPADVSPINCSLCLKPDLLDFTFEGKLEAAAQVRQATNQIVMNCADIDIITASYAPEGDEEIHATGFNYQNEDEKVTLSFPSTLQTGTGTLKIDFVGELNDKMKGFYRSKYTTPSGEVRYAAVTQFEATDARRAFPCWDERAIKATFDISLVVPKDRVALSNMNVIDRKPYPDDENLVEVKFARTPVTSTYLVAFVVGEYDFVETRSKDGVCVCVYTPVGKAEQGKFALEVAAKTLPFYKDYFNVPYPLPKIDLIAIADFAAGAMENWDLVTYRETALLIDPKNSCSSSRQWVALVVGHELAHQWFGNLVTMEWWTHLRLNEGFASWIEYLCVDHCFPEYDIWTQFVSADYTRAQELDALDNSHPIEVSVGHPSEVDEIFDAISYSKGASVIRMLHDYIGDKDFKKGMNMYLTKFQQKNAAAGNL | 0.69 |
| P0C7P4 (protein, UniProt P0C7P4 1-283, looked up, full-length) MQQIYTVKEIRSVAARSGPFAPVLSATSRGVAGALRPLVQATVPATPEQPVLDLKRPFLSRESLSGQAVRRPLVASVGLNVPASVCYSHTDIKVPDFSEYRRLEVLDSTKSSRESTEARKGFSYLVTGVTTVGVAYAAKNAVTQFVSSMSASADVLALAKIEIKLSDIPEGKNMAFKWRGKPLFVRHRTQKEIKQEAAVELSQLRDPQHDLDRVKKPEWVILIGVCTHLGCVPIANAGDFGGYYCPCHGSHYDASGRIRLGPATLNLEVPTYEFTSDDMVIVG | 1.07 |
| Q5VTE0 (protein, UniProt Q5VTE0 1-462, looked up, full-length) MGKEKTHINIVVIGHVDSGKSTTTGHLIYKCGGIDKRTIEKFEKEAAEMGKGSFKYAWVLDKLKAERERGITIDISLWKFETSKYYVTIIDAPGHRDFIKNMITGTSQADCAVLIVAAGVGEFEAGISKNGQTREHALLAYTLGVKQLIVGVNKMDSTEPPYSQKRYEEIVKEVSTYIKKIGYNPDTVAFVPISGWNGDNMLEPSANMPWFKGWKVTRKDGNASGTTLLEALDCILPPTRPTDKPLRLPLQDVYKIGGIGTVPVGRVETGVLKPGMVVTFAPVNVTTEVKSVEMHHEALSEALPGDNVGFKVKNVSVKDVRRGNVAGDSKNDPPMEAAGFTAQVIILNHPGQISAGYAPVLDCHMAHIACKFAELKEKIDRRSGKKLEDGPKFLKSGDAAIVDMVPGKPMCVESFSDYPPLGRFAVRDMRQTVAVGVIKAVDKKAAGAGKVTKSAQKAQKAK | 1.30 |
| A8MUU1 (protein, UniProt A8MUU1 1-101, looked up, full-length) MGAMAKPDCIITCDSKNLTIKTESTLKTTQFSGTLGEKFEENTADGRRTQTVCNFTDGALVQHQEWDGKESTITRKLKDGKLVVERVMNHVACTRIYEKAQ | 0.80 |
| Q6DN03 (protein, UniProt Q6DN03 1-193, looked up, full-length) MPEPAKFAPAPKKGSKKAVTKAQKKDGKKRKRSRKESYSIYVYKVLKRVHPDTGIWCKAMGIMNSFLNDIFERIAGEASRLAHYNKRSTITSRRSRRPCACCCPASWPSTPCPRAPRRSPSTPAPSESLPGPGARSLPPSLPPRVAGCFVSKGSFQGHLTTSVKESFLCCQSQLMFLASRLVNFRRAHNTKHR | 1.09 |
| Q6GMV3 (protein, UniProt Q6GMV3 1-140, looked up, full-length) MHRGVGPAFRVVRKMAASGAEPQVLVQYLVLRKDLSQAPFSWPAGALVAQACHAATAALHTHRDHPHTAAYLQELGRMRKVVLEAPDETTLKELAETLQQKNIDHMLWLEQPENIATCIALRPYPKEEVGQYLKKFRLFK | 0.67 |
| Q9H853 (protein, UniProt Q9H853 1-241, looked up, full-length) MRHQQTERQDPSQPLSRQHGTYRQIFHPEQLITGKEDAANNYAWGHYTIGKEFIDLLLDRIRKLADQCTGLQGFLVFHSLGRGTGSDVTSFLMEWLSVNYGKKSKLGFSIYPAPQVSTAMVQPYNSILTTHTTLEHSDCAFMVDNKAIYDICHCNLDIERPTYTNLNRLISQIVSSITASLRFDGALNVDLTEFQTNLVSYLTSTSPWPPMHQSSLQKRYTTSSCWWQRLPMPALSLPTRW | 0.69 |
| Q9NVS9 (protein, UniProt Q9NVS9 1-261, looked up, full-length) MTCWLRGVTATFGRPAEWPGYLSHLCGRSAAMDLGPMRKSYRGDREAFEETHLTSLDPVKQFAAWFEEAVQCPDIGEANAMCLATCTRDGKPSARMLLLKGFGKDGFRFFTNFESRKGKELDSNPFASLVFYWEPLNRQVRVEGPVKKLPEEEAECYFHSRPKSSQIGAVVSHQSSVIPDREYLRKKNEELEQLYQDQEVPKPKSWGGYVLYPQVMEFWQGQTNRLHDRIVFRRGLPTGDSPLGPMTHRGEEDWLYERLAP | 0.81 |
